These are yes or no findings as the source states them, for the method shown. In cells and extracts the contact can be indirect. Some results given as binding are weak or reduced against the parent protein; the word gives no strength.
Biological target: BAX (endogenous, MCF-7 cells) (human (endogenous in MCF-7)) (UniProt Q07812)
Test: co-IP; MCF-7 cells treated with increasing concentrations of α-mangostin for 12 h; lysates in CHAPS buffer (20 mM Tris-HCl pH 7.5, 150 mM NaCl, 0.2% Nonidet P-40, 1 mM EDTA); polyclonal anti-BAX antibody N20 overnight at 4°C, Protein A agarose 4 h at 4°C; Western blot

Sequences of proteins named here, by UniProt entry; tags and fusion partners are left off.
UniProt Q07812: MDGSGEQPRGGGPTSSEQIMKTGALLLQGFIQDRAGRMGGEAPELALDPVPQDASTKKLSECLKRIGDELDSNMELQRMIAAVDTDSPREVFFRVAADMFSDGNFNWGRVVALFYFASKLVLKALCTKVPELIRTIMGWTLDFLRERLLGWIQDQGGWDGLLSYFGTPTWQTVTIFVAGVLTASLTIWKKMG

B1: MOAP-1 (Modulator of apoptosis 1), endogenous, MCF-7 cells (protein, UniProt Q96BY2 1-351)
chain: MTLRLLEDWCRGMDMNPRKALLIAGISQSCSVAEIEEALQAGLAPLGEYRLLGRMFRRDENRKVALVGLTAETSHALVPKEIPGKGGIWRVIFKPPDPDNTFLSRLNEFLAGEGMTVGELSRALGHENGSLDPEQGMIPEMWAPMLAQALEALQPALQCLKYKKLRVFSGRESPEPGEEEFGRWMFHTTQMIKAWQVPDVEKRRRLLESLRGPALDVIRVLKINNPLITVDECLQALEEVFGVTDNPRELQVKYLTTYQKDEEKLSAYVLRLEPLLQKLVQRGAIERDAVNQARLDQVIAGAVHKTIRRELNLPEDGPAPGFLQLLVLIKDYEAAEEEEALLQAILEGNFT
- binding: binds
